{"sequences": {"note": "Sequences of proteins named here, by UniProt entry; tags and fusion partners are left off. Residues count along the entry.", "UniProt P67999, 24-388": "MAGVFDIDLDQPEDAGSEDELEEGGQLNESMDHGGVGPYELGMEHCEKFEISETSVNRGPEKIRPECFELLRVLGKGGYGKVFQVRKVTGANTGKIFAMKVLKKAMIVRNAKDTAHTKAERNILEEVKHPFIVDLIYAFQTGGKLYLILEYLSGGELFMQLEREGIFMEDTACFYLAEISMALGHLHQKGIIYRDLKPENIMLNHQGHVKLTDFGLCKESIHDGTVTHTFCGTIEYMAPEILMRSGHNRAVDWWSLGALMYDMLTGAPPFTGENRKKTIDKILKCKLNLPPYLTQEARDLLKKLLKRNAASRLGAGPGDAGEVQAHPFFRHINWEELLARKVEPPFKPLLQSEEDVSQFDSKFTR"}, "source": "patent US20110152166A1", "about": "“METHOD OF MODULATION OF PROTEIN PHOSPHORYLATION-DEPENDENT CONFORMATIONAL TRANSITIONS WITH LOW MOLECULAR WEIGHT COMPOUNDS” (priority 2006, published 2011)", "key": {"GST-S6K11-365": {"target": "GST-S6K11-365 (Rattus norvegicus, UniProt P67999)", "assay": "Global amide hydrogen exchange (HXMS)", "design": "made in house", "settings": "early time points; peptide 150 molar excess", "excerpt": "(A) Effect of S6K1 tail peptides, described in the legend to FIG. 13, on global deuteron uptake by purified GST-56K11-365. (B) Kinase activity of wt and mutant GST-PKCζ. (C) Global deuteron uptake by wt and mutant GST-PKCζ. (D) Local deuteron uptake by wt and mutant GST-PKCζ. In the PKCζ model, peptides showing strong and no-or-slight protection by the tail phosphate are shown in pink and grey, respectively. The panels show HX curves of the peptides. Experiments were repeated 2 times (A, C, D) or 3 times (B) and data are means±range (A, C) or ±SD (B)\nAmide hydrogen (^1H/^2H) exchange monitored by mass spectrometry (HXMS). D2O (99.9 atom % D) was obtained from Cambridge Isotope Laboratories. Isotopic exchange was initiated by diluting 8 μl 20-40 μM protein in 300 μl deuterated buffer (25 mM Tris, 150 mM NaCl, 1 mM dithiothreitol, 10 mM MgCl2, 25 mM glutathione, pD 7.1 uncorrected value). The exchange was carried out at 30° C., and 75 μl aliquots were collected after 1 min, 5 min, 15 min, and 45 min. […]\nThe LC setup was described previously (Jorgensen et al., 2004), with the modification that proteins were desalted for 5 min and eluted with a 9 min linear gradient (14% to 70% acetonitrile, 0.05% TFA) to separate the free GST from the GST-tagged kinases of interest in the global hydrogen exchange analysis. […] The HXMS data on peptide level were analyzed by HX-Express (Weis et al., 2006). […]"}, "PDK1": {"target": "T1, PDK1 (Homo sapiens, UniProt O15530)", "T1 sequence (O15530 1-556)": "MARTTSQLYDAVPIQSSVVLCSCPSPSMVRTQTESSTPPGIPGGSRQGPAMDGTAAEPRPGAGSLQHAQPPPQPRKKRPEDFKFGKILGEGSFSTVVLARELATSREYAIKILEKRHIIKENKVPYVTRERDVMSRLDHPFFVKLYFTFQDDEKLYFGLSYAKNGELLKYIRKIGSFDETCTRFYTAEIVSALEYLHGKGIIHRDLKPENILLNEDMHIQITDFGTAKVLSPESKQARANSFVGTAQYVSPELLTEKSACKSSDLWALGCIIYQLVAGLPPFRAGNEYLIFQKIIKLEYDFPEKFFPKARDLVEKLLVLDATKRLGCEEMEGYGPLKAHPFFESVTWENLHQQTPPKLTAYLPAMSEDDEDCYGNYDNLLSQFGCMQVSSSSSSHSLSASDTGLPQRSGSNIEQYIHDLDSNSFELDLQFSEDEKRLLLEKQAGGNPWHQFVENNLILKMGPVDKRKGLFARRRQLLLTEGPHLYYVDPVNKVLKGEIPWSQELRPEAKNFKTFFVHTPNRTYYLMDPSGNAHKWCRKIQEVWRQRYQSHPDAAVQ", "assay": "PDK1 kinase activity with S6K tail peptides", "type": "biochemical", "procedure": "FIG. 21 (A) Aliquots of S6K1 protein from bar 1, 2, 5 and 6 in FIG. 5B were subjected to immunoblotting with phosphorylation site specific Ab against the activation loop or anti-HA Ab. (B) The kinase activity of PKB<143-479, prephosphorylated by PDK1 in the activation loop, was determined in the presence of increasing concentrations of synthetic PRK2 tail peptides encompassing the HM, which were either nonphosphorylated (PIFtide) or phosphorylated at the tail site (pT958-PIFtide). […] (C) The kinase activity of purified PDK1 was determined in the presence of increasing concentrations of synthetic S6K tail peptide (residues 366-395) that was either phosphorylated at T389 (S371/pT389) or phosphorylated at both 5389 and 5371 (pS371/pT389). Kinase activity is expressed as percent, and data are means+/−SD of 3 independent experiments. (D) Synthetic S371/pT389 S6K tail peptide and pS371/pT389 S6K tail peptide were biotinylated and used to coat streptavidin Sensor Chips. PDK150-360 was injected at different concentrations (0.05-5.4 mM) onto the peptide coated chips. In the inserts, the kinetic constants were obtained by fitting the data to a hyperbola using kaleidagraph software. Representative results from one of several experiments are shown."}}, "note": "At least one peptide structure holds a part that was inferred or is arguable (an end, a ring closure or a residue). Square brackets hold non-standard residues; d marks the D form. Peptide text beside a SMILES is read from it. pT = C[C@@H](OP(=O)(O)O)[C@H](N)C(=O)O; pS = N[C@@H](COP(=O)(O)O)C(=O)O"}
{"smiles": "CC(C)C[C@H](NC(=O)[C@H](Cc1ccccc1)NC(=O)[C@@H](NC(=O)[C@H](CCC(N)=O)NC(=O)[C@H](CC(N)=O)NC(=O)[C@H](C)NC(=O)[C@H](CO)NC(=O)[C@H](CCC(=O)O)NC(=O)[C@H](CO)NC(=O)[C@H](CC(C)C)NC(=O)[C@@H](NC(=O)[C@H](CO)NC(=O)[C@H](CC(=O)O)NC(=O)[C@H](CC(=O)O)NC(=O)[C@@H]1CCCN1C(=O)[C@H](COP(=O)(O)O)NC(=O)[C@H](CC(=O)O)NC(=O)[C@@H](NC(=O)[C@@H]1CCCN1C(=O)[C@@H](NC(=O)[C@@H](N)CCC(N)=O)[C@@H](C)O)C(C)C)[C@@H](C)O)C(C)C)C(=O)NCC(=O)N[C@@H](Cc1ccccc1)C(=O)N[C@H](C(=O)N[C@@H](Cc1ccc(O)cc1)C(=O)N[C@H](C(=O)N[C@@H](C)C(=O)N1CCC[C@H]1C(=O)N[C@@H](CO)C(=O)N[C@H](C(=O)N[C@@H](CCC(=O)O)C(=O)N[C@@H](CCC(=O)O)C(=O)N[C@@H](CCCCN)C(=O)O)C(C)C)C(C)C)[C@@H](C)OP(=O)(O)O", "note": "[pS371/pT389] (H-QTPVD[pS]PDDSTLSESANQVFLGF[pT]YVAPSVEEK-OH; N-terminus and C-terminus assumed)", "values": [{"measurement": "fewer deuterons incorporated in S6K11-365 versus no peptide", "setting": "GST-S6K11-365", "result": "≈ 25 deuterons"}, {"measurement": "activation of PDK1 by tail peptide (in words)", "setting": "PDK1", "result": "activated to the same extent"}]}
